Over roughly 33,000 sequences, “E-score (-0.5 to 0.5)” has its median near -0.0034; the highest 2% begin near 0.25. The list shows a part of the results.
Target: T1, Yap3 (UniProt P38749)
T1 sequence: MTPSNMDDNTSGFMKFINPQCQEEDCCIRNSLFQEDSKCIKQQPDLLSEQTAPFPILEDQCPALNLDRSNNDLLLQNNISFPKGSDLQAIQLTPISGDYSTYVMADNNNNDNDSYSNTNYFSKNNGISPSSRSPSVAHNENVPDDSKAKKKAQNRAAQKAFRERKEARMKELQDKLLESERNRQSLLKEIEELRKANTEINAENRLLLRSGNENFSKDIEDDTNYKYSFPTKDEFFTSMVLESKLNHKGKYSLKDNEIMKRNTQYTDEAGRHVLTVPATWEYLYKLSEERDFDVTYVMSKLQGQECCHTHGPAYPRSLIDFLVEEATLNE
Assay: PBM E-score (8-mer binding enrichment) (E-score (-0.5 to 0.5)); higher = stronger / more preferred TF binding
Details: protein concentration: 100 nM; construct: GST-full length
Method: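 Universal 'all 10-mer' protein binding microarrays (Agilent AMADID 015681) probed with GST-tagged S. cerevisiae TFs (full-length or DBD) made by in vitro transcription/translation (PURExpress), about 100-200 nM. Bound TF was detected with fluorescent anti-GST. Each ungapped 8-mer (which stands for itself and its reverse complement) is scored by the PBM enrichment score (E-score), a modified Wilcoxon-Mann-Whitney statistic from -0.5 to +0.5, computed with the Universal PBM Analysis Suite. Scale: above 0.35 generally sequence-specific binding.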

Point of comparison: CCAACGGA, “PBM E-score” value -0.191. Against it:
- CGGCGCGA — higher, 0.127
- ACCCGATA — higher, 0.0312
- AGCCCACT — higher, -0.136
- CATCCAGA — higher, -0.101
- ACTAGCAA — higher, 0.0373
- CCACACAA — higher, 0.0602
- CGTGGTGA — lower, -0.221
- AGCCCCCT — lower, -0.312
- GTCGTAGA — higher, -0.00497
- CTTGTAGC — higher, -0.0131
- ACGCGGAC — higher, -0.0572
- GCTGGTAC — higher, -0.184
- CCACGCCA — higher, -0.043
- GGCACTAA — higher, 0.107
- CCGGGTCG — higher, -0.157
- CGGCAAGA — higher, 0.0482
- ACGGTGCT — higher, -0.039
- GGCATCCC — lower, -0.214
- GGCTCAGA — higher, -0.112
- CGACGCGA — higher, -0.0795
- AGGATGAT — higher, 0.151
- ACCGGATG — higher, -0.0805
- CTCAACTC — higher, 0.099
- CCGGTCAC — higher, -0.153
- AGAAACTC — higher, 0.0111
- ACCGCGTA — higher, 0.128
- AGCGCACT — higher, -0.0349
- ACCATCGG — lower, -0.221
- AACGATCT — higher, 0.0807
- ATACAGGA — higher, 0.166
- GCTACTCA — higher, -0.0832
- ACAAGTGA — higher, 0.0221
- CGAAGTGA — higher, 0.0166
- GACACCCC — lower, -0.274
- AGGACAGC — higher, 0.00569
- CACTAACC — higher, -0.0243
- AGCGCGCC — higher, 0.00552
- GCGTACTA — higher, -0.00541
- AAGACGAT — higher, 0.115
- ATGAGCAA — higher, 0.113
- GCTCCGCC — higher, -0.13
- AGTCTACC — lower, -0.238
- ACTGTTAG — higher, -0.0667
- AGGGACCA — higher, -0.125
- AGAAACAT — higher, 0.209
- GCATAGAC — higher, -0.112
- GCACGAGC — higher, -0.166
- ACGTTCGG — higher, -0.178
- AAATCGAA — higher, 0.201
- GATGGTTA — higher, 0.0784
- CAGACAAG — higher, 0.0339
- CAGGCCAG — lower, -0.211
- CCAGGAGG — higher, -0.19
- AGGTTGCA — higher, 0.2
- ATCCGAGG — higher, -0.14
- CAACAGAA — higher, -0.0742
- ATTAGAAG — higher, 0.0855
- TCCCCCGA — lower, -0.278
- CATGTCAC — higher, 0.0317
- ATACTGAG — higher, 0.142
- AATCGATG — higher, 0.162
- AAAGGTAC — higher, -0.00041
- ATGCGAAG — higher, 0.0633
- CCAAAATA — higher, 0.211
- TGCCCCAA — higher, 0.00554
- CGTAGACA — higher, -0.149
- GAGGTTAC — higher, 0.0463
- CGCCGAGC — higher, 0.0512
- CCTTGTGC — higher, -0.158
- GAAAATAC — higher, 0.0884
- CAAAGAGC — higher, 0.0482
- GGAGCCCC — lower, -0.272
- CTTTTCAA — higher, 0.0821
- ATTCAGCA — higher, 0.076
- GGCGCCCA — higher, -0.134
- CTGGTGGA — higher, -0.126
- AAATCATG — higher, 0.194
- CCGTAAAG — higher, 0.0942
- AAAGGGAA — higher, 0.00654
- GGGGGAAA — higher, -0.024
- CTAAATGC — higher, -0.0088
- CAAATACG — higher, 0.0291
- CGGGGTTC — higher, -0.0745
- CAGTATAC — higher, 0.133
- AACGAATG — higher, 0.208

Source: the supplement of paper PMC3334620
